Results as given in paper PMC4743010.
These are yes or no findings as the source states them, for the method shown. Binding seen in cells or lysates may run through a third protein. Some binding calls cover weakened binding; strength is not graded here. For part of these data: Tags and fused reporters may be left off the sequences shown.

Sequences of proteins named here, by UniProt entry; tags and fusion partners are left off.
UniProt Q96Q15: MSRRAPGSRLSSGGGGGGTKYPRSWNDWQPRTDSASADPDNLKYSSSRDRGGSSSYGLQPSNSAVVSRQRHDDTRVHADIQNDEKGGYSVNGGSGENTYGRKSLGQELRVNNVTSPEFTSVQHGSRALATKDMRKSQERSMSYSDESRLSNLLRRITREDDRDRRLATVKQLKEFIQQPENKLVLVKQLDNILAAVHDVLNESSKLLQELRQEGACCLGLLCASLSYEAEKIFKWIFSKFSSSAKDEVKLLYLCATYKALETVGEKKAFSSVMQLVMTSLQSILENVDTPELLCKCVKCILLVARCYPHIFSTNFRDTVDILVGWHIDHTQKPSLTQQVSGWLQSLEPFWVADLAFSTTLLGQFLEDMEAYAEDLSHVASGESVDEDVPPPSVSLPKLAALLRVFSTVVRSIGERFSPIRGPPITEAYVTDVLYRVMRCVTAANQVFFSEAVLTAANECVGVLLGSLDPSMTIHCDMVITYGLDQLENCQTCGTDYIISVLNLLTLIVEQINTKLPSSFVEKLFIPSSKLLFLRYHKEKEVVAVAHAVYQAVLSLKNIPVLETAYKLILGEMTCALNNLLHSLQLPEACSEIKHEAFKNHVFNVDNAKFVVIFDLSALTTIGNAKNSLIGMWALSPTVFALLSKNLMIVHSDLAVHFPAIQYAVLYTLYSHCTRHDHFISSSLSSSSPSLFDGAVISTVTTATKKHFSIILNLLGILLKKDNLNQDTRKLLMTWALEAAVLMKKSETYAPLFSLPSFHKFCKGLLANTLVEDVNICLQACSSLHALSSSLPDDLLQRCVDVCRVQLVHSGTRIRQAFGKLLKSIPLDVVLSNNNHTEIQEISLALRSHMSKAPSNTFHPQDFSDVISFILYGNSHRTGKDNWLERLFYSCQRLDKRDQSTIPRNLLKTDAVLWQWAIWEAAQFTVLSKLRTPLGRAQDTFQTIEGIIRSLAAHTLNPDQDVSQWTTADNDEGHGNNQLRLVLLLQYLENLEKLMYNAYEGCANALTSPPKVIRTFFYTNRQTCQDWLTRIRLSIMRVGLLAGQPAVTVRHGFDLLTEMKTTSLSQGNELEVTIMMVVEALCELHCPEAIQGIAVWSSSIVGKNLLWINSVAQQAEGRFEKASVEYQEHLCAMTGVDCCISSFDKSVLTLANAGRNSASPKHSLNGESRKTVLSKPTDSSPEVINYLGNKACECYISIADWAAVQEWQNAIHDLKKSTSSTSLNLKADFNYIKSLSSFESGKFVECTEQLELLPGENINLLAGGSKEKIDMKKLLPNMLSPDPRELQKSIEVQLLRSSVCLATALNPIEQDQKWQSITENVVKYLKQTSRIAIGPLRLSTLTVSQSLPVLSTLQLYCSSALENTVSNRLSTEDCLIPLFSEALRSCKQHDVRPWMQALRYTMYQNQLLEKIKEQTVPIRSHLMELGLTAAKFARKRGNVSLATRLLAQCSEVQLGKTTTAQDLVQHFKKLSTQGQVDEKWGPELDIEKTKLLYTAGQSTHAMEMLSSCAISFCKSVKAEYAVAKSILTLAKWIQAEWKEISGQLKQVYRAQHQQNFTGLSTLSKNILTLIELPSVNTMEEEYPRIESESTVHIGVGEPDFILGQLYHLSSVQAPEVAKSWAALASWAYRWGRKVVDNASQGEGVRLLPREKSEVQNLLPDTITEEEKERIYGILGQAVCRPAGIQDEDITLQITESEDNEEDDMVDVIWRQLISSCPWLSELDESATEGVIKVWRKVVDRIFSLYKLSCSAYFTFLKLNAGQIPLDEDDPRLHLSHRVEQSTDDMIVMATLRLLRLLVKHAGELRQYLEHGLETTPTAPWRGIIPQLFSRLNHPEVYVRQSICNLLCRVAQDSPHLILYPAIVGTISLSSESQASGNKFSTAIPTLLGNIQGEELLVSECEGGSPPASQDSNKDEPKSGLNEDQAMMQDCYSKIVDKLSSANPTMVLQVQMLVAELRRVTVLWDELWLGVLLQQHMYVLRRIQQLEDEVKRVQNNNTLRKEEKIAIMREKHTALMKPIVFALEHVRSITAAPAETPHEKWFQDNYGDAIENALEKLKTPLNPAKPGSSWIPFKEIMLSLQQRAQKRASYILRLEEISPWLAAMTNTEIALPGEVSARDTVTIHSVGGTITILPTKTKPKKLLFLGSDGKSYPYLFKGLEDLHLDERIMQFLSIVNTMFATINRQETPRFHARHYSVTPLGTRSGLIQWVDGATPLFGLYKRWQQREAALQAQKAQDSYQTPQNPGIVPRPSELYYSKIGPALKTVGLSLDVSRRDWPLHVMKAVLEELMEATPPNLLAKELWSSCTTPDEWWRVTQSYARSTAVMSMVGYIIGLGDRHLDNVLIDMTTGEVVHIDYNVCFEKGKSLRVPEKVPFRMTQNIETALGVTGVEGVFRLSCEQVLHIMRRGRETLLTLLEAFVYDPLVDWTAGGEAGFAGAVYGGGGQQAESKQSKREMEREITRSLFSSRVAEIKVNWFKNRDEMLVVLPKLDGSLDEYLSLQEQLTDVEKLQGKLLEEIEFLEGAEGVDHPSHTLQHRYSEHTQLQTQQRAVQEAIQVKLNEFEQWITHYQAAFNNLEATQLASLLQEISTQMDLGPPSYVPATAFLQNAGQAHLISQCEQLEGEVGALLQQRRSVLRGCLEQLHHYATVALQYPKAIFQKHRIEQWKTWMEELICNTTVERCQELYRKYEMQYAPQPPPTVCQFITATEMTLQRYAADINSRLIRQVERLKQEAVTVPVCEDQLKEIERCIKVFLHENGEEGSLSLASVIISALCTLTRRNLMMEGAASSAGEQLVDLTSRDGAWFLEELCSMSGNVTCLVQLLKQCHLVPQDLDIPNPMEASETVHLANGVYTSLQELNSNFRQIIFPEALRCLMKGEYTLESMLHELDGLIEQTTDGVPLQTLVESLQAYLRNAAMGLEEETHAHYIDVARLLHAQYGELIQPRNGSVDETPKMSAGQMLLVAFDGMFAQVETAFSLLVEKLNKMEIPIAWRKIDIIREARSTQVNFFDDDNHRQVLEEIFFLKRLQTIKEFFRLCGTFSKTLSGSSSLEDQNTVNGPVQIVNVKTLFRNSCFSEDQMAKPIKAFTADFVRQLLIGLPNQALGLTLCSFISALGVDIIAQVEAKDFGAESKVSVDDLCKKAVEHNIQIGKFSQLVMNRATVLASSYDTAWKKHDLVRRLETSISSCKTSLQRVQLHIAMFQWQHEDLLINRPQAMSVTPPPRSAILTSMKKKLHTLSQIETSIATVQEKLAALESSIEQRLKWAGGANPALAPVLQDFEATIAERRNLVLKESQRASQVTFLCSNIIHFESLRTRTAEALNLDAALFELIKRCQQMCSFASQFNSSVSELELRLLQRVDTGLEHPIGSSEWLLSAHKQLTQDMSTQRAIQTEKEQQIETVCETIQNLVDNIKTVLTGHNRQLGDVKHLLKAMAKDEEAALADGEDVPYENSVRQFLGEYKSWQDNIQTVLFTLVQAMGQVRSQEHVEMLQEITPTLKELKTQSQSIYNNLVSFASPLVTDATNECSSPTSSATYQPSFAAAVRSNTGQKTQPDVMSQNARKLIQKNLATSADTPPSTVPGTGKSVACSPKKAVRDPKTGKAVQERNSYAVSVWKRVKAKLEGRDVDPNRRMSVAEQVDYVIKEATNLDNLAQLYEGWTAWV

T1: T7-DHX34 full-length (human) (UniProt Q14147)
T1 sequence: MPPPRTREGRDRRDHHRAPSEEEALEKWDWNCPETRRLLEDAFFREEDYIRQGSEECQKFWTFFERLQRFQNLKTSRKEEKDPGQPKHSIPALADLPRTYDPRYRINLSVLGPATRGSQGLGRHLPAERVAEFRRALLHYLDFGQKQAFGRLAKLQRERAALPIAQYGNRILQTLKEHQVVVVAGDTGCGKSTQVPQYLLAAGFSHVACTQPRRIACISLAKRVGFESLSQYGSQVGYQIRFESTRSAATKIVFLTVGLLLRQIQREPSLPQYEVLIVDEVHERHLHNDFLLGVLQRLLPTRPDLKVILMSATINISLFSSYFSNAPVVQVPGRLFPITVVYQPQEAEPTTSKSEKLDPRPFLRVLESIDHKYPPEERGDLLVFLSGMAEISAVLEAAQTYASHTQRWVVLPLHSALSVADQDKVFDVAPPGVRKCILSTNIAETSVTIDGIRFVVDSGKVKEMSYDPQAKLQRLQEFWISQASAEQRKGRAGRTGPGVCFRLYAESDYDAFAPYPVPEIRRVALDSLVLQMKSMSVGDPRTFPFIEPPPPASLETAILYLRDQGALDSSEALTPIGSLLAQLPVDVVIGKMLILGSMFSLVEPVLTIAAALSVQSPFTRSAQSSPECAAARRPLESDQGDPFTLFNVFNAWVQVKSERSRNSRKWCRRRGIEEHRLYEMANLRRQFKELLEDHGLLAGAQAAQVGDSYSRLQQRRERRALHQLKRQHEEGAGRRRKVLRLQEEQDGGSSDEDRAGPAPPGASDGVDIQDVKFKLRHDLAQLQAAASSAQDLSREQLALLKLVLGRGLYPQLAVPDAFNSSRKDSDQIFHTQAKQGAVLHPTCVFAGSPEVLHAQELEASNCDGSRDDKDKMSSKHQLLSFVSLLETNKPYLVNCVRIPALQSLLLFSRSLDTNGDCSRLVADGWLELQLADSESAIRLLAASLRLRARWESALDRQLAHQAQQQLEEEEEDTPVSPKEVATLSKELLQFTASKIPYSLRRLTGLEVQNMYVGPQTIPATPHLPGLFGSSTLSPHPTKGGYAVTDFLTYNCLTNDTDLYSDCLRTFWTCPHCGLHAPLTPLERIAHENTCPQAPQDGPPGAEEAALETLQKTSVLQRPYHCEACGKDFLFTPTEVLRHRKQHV

T2: 3XFLAG-UPF1 C126S (pCDNA3-3XFLAG-UPF1 C126S mutant) (UniProt Q92900)
T2 sequence: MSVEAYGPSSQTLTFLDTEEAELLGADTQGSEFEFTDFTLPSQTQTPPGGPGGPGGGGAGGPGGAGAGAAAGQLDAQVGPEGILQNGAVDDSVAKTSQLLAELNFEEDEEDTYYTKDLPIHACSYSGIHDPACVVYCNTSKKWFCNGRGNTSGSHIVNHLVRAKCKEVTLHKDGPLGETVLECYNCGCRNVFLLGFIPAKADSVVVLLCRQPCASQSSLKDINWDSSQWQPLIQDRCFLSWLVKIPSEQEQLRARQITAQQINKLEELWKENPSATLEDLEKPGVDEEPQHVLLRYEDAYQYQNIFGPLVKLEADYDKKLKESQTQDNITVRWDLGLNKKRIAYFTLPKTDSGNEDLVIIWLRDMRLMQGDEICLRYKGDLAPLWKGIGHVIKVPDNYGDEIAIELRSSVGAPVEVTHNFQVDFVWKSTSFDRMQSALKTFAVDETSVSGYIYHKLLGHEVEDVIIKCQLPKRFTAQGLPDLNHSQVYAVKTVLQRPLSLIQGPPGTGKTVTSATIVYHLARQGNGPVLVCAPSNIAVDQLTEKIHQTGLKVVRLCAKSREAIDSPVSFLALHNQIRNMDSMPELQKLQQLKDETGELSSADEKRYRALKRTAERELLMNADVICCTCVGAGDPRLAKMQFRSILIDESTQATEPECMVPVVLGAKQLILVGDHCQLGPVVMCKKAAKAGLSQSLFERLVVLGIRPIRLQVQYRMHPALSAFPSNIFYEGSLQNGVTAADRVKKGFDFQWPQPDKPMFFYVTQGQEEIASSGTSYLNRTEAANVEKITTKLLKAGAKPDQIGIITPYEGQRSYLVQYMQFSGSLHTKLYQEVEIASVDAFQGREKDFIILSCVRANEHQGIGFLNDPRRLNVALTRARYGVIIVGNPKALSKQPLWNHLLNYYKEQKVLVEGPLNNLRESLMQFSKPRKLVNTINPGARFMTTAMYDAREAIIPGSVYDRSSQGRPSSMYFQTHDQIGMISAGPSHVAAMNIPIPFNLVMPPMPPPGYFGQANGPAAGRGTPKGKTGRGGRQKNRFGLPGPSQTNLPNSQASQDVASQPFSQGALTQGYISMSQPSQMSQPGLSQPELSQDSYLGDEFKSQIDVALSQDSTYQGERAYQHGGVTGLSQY

T3: 3XFLAG-UPF1 wild-type (pCDNA3-3XFLAG-UPF1) (UniProt Q92900)
T3 sequence: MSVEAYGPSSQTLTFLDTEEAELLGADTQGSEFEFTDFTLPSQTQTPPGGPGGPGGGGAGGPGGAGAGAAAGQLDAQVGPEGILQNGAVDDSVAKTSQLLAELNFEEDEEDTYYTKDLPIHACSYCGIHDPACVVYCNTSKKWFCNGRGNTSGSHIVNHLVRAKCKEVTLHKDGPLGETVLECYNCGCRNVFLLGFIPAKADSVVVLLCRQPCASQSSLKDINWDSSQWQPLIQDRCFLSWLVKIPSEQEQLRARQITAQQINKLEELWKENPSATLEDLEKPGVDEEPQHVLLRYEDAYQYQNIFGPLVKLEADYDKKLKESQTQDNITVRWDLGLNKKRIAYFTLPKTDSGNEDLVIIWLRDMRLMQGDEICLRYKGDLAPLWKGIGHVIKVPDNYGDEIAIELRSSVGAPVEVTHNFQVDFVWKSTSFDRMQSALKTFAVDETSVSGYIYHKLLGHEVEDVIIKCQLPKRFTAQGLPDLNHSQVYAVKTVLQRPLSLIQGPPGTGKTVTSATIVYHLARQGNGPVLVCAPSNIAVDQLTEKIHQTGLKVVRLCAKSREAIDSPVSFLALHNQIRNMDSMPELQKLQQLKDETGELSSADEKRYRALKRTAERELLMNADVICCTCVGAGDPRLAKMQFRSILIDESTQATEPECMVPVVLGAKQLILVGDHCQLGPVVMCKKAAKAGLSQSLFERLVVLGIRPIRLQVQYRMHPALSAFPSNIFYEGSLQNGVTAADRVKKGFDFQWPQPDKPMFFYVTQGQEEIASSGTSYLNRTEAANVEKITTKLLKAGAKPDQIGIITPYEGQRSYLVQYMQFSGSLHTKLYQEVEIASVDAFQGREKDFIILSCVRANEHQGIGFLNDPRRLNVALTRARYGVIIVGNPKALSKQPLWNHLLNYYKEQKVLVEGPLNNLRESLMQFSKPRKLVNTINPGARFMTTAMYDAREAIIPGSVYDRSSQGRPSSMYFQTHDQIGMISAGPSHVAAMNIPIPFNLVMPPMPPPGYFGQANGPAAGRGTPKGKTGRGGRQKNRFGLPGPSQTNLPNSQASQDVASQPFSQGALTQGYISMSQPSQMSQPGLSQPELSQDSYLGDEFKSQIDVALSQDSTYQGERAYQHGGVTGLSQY


What was measured:
[1] = molecular target: T1, T7-DHX34 full-length (human); assay: co-IP; T7-DHX34 constructs expressed in HEK293T (with or without shRNA depletion of endogenous DHX34); lysate with RNase A; anti-T7 agarose; blot for endogenous SMG1
[2] = molecular target: T2, 3XFLAG-UPF1 C126S (pCDNA3-3XFLAG-UPF1 C126S mutant); assay: co-IP; sequential: 3XFLAG-UPF1 (wild-type or C126S) with T7-DHX34 or T7-YFP in HEK293T; anti-FLAG IP, FLAG peptide elution, then anti-T7 agarose IP; blot for endogenous SMG1
[3] = molecular target: T1, T7-DHX34 full-length (human); assay: as above
[4] = molecular target: T3, 3XFLAG-UPF1 wild-type (pCDNA3-3XFLAG-UPF1); assay: as above
[5] = molecular target: T1, T7-DHX34 full-length (human); assay: co-IP; sequential: FLAG-SMG1, MYC-UPF1 and T7-DHX34 co-expressed in HEK293T; anti-FLAG IP, FLAG peptide elution, then anti-T7 agarose IP
[6] = molecular target: FLAG-SMG1 (pCMV6-SMG1-MYC-FLAG) (UniProt Q96Q15); assay: as above

binding [1] | binding [2] | binding [3] | binding [4] | binding [5] | binding [6] | Molecule
binds | binds | binds | binds |  |  | endogenous SMG1 (from UniProt Q96Q15 1-3661) (enzyme)
 |  |  |  | binds | binds | MYC-UPF1 (enzyme, UniProt Q92900 1-1129) MSVEAYGPSSQTLTFLDTEEAELLGADTQGSEFEFTDFTLPSQTQTPPGGPGGPGGGGAGGPGGAGAGAAAGQLDAQVGPEGILQNGAVDDSVAKTSQLLAELNFEEDEEDTYYTKDLPIHACSYCGIHDPACVVYCNTSKKWFCNGRGNTSGSHIVNHLVRAKCKEVTLHKDGPLGETVLECYNCGCRNVFLLGFIPAKADSVVVLLCRQPCASQSSLKDINWDSSQWQPLIQDRCFLSWLVKIPSEQEQLRARQITAQQINKLEELWKENPSATLEDLEKPGVDEEPQHVLLRYEDAYQYQNIFGPLVKLEADYDKKLKESQTQDNITVRWDLGLNKKRIAYFTLPKTDSGNEDLVIIWLRDMRLMQGDEICLRYKGDLAPLWKGIGHVIKVPDNYGDEIAIELRSSVGAPVEVTHNFQVDFVWKSTSFDRMQSALKTFAVDETSVSGYIYHKLLGHEVEDVIIKCQLPKRFTAQGLPDLNHSQVYAVKTVLQRPLSLIQGPPGTGKTVTSATIVYHLARQGNGPVLVCAPSNIAVDQLTEKIHQTGLKVVRLCAKSREAIDSPVSFLALHNQIRNMDSMPELQKLQQLKDETGELSSADEKRYRALKRTAERELLMNADVICCTCVGAGDPRLAKMQFRSILIDESTQATEPECMVPVVLGAKQLILVGDHCQLGPVVMCKKAAKAGLSQSLFERLVVLGIRPIRLQVQYRMHPALSAFPSNIFYEGSLQNGVTAADRVKKGFDFQWPQPDKPMFFYVTQGQEEIASSGTSYLNRTEAANVEKITTKLLKAGAKPDQIGIITPYEGQRSYLVQYMQFSGSLHTKLYQEVEIASVDAFQGREKDFIILSCVRANEHQGIGFLNDPRRLNVALTRARYGVIIVGNPKALSKQPLWNHLLNYYKEQKVLVEGPLNNLRESLMQFSKPRKLVNTINPGARFMTTAMYDAREAIIPGSVYDRSSQGRPSSMYFQTHDQIGMISAGPSHVAAMNIPIPFNLVMPPMPPPGYFGQANGPAAGRGTPKGKTGRGGRQKNRFGLPGPSQTNLPNSQASQDVASQPFSQGALTQGYISMSQPSQMSQPGLSQPELSQDSYLGDEFKSQIDVALSQDSTYQGERAYQHGGVTGLSQY
